Here are results for one compound from patent US12491252B2, “Substituted 3-amino-5-phenylbenzamide compounds as covalent inhibitors of enhancer zeste homolog 2 (EZH2) and proteolysis-targeting chimeric derivatives thereof (PROTACs) that induce degradation of EZH2” (Northwestern University, priority 2021, dated 2025).

Where two headings read alike, the source gives them in different places.

Type in all cases: cell-based
One assay relates to SU-DHL4 cells. Kind of assay: WST cell viability assay in SU-DHL4 cells. As to conditions: for IC50: Homo sapiens, variable slope, read-out: IC50 (best-fit value). As for the experimental part: (§1) Cell proliferation was measured using WST-1 Kit (Clontech) according to manufacturer's protocol.
For assay [1], the system named is 22Rv1 cells. Kind of assay: WST cell viability assay in 22Rv1 cells. As to conditions: Homo sapiens; Table 4; WST1 cell viability with different doses on 22Rv1; read-out: IC50 (best-fit value). As to the method:
as §1

In a further assay the test system is SU-DHL6 cells. Put plainly: WST cell viability assay in SU-DHL6 cells. As to conditions: Table 7; WST1 test cell viability with higher dose on SU-DHL6; variable slope. As for the experimental part:
as §1
(In general: Tetrazolium dyes change colour on reduction, which living cells bring about.)

A further assay deals with LNCaP cells. Put plainly: WST cell proliferation/viability assay in LNCaP cells. As to conditions: Homo sapiens; Table 3; WST1 test cell viability on LNCaP; [Inhibitor] vs. normalized response; read-out: IC50 (best-fit value). As for the experimental part:
FIG. 19A-19B. (FIG. 19A) WST cell proliferation assay of indicated compounds in LNCaP cells. […] (FIG. 19B) Effects of indicated compounds on EZH2, AR, and FOXA1 by western blot at 1 μM in LNCaP cells.
as §1

Assay [2] concerns 22Rv1 cells. Put plainly: Cell titer glo cell viability assay in 22Rv1 cells. As to conditions: Homo sapiens; Table 5; Cell titer glo test cell viability with different doses on 22Rv1; read-out: IC50 (best-fit value).

In general, IC50 refers to the concentration at which inhibition is half-maximal. Consider `CCN(c1cc(-c2ccc(CN3CCOCC3)cc2)cc(C(=O)NCc2c(C)cc(C)[nH]c2=O)c1C)C1CCOCC1` [EPZ-6438, reference compound], for which the IC50 amounted to 104 µM in the assay on SU-DHL4 cells (SU-DHL-4, Table 8, WST1 test cell viability within 1 μM on SU-DHL4); 4.08 µM in the assay on SU-DHL4 cells (SU-DHL-4, Table 9, WST1 test cell viability within 1 μM on SU-DHL4 (as titled)); 57.5 µM with 22Rv1 cells [1]; 7.8 µM in the assay on LNCaP cells; 30.9 µM in the assay on 22Rv1 cells [2]. The “logIC50 (best-fit value)” value in the assay with SU-DHL4 cells (Table 9, WST1 within 1 μM on SU-DHL4 (as titled)) worked out at 0.6103. Besides, the “IC50 (best-fit value)” value in the assay with SU-DHL6 cells is listed as “Unstable”.
